From article PMC5986199

Legend:
[1] = biological target: α-NAC subunit lacking the UBA domain (C. elegans); assay: native gel or EMSA; NAC heterodimer alone; 10% native PAGE, Tris/glycine pH 8.5, Coomassie Blue; both purified
[2] = biological target: α-NAC subunit of C. elegans NAC (C. elegans); assay: as above
[3] = biological target: α-NAC subunit lacking the UBA domain (C. elegans); assay: native MS; NAC heterodimer alone, 10 uM in 100 mM ammonium acetate pH 6.9, nano-ESI, positive mode; both purified
[4] = biological target: α-NAC subunit of C. elegans NAC (C. elegans); assay: as above
[5] = biological target: α-NAC subunit lacking the UBA domain (C. elegans); assay: cross-linking; BS3 (d0/d4) at 20- or 50-fold molar excess, 20 uM NAC alone or + 20 uM substrate, 10 mM sodium phosphate pH 7.0, room temperature 1 h; SDS-PAGE, in-gel tryptic digest, LC-MS/MS; both purified
[6] = biological target: α-NAC subunit of C. elegans NAC (C. elegans); assay: as above

binding [1]: binds | binding [2]: binds | binding [3]: binds | binding [4]: binds | binding [5]: binds | binding [6]: binds
B1: β-NAC subunit of C. elegans NAC (protein, UniProt Q18885 1-161)
chain: MDSKAIAERIKKLQAQQEHVRIGGKGTPRRKKKVIHKTAAADDKKLQSNLKKLSVTNIPGIEEVNMIKDDGTVIHFNNPKVQTSVPANTFSVTGSADNKQITEMLPGILNQLGPESLTHLKKLANNVTKLGPDGKGEDEDVPELVGDFDAASKNETKADEQ

These are yes or no findings as the source states them, for the method shown. Binding calls can cover weak binding; strength is not graded here.
